First the molecules themselves.
B1: NCAPG2 (protein, UniProt Q86XI2 1-1143)
chain: MEKRETFVQAVSKELVGEFLQFVQLDKEASDPFSLNELLDELSRKQKEELWQRLKNLLTDVLLESPVDGWQVVEAQGEDNMETEHGSKMRKSIEIIYAITSVILASVSVINESENYEALLECVIILNGILYALPESERKLQSSIQDLCVTWWEKGLPAKEDTGKTAFVMLLRRSLETKTGADVCRLWRIHQALYCFDYDLEESGEIKDMLLECFININYIKKEEGRRFLSCLFNWNINFIKMIHGTIKNQLQGLQKSLMVYIAEIYFRAWKKASGKILEAIENDCIQDFMFHGIHLPRRSPVHSKVREVLSYFHHQKKVRQGVEEMLYRLYKPILWRGLKARNSEVRSNAALLFVEAFPIRDPNLHAIEMDSEIQKQFEELYSLLEDPYPMVRSTGILGVCKITSKYWEMMPPTILIDLLKKVTGELAFDTSSADVRCSVFKCLPMILDNKLSHPLLEQLLPALRYSLHDNSEKVRVAFVDMLLKIKAVRAAKFWKICPMEHILVRLETDSRPVSRRLVSLIFNSFLPVNQPEEVWCERCVTLVQMNHAAARRFYQYAHEHTACTNIAKLIHVIRHCLNACIQRAVREPPEDEEEEDGREKENVTVLDKTLSVNDVACMAGLLEIIVILWKSIDRSMENNKEAKLYTINKFASVLPEYLKVFKDDRCKIPLFMLMSFMPASAVPPFSCGVISTLRSREEGAVDKSYCTLLDCLCSWGQVGHILELVDNWLPTEHAQAKSNTASKGRVQIHDTRPVKPELALVYIEYLLTHPKNRECLLSAPRKKLNHLLKALETSKADLESLLQTPGGKPRGFSEAAAPRAFGLHCRLSIHLQHKFCSEGKVYLSMLEDTGFWLESKILSFIQDQEEDYLKLHRVIYQQIIQTYLTVCKDVVMVGLGDHQFQMQLLQRSLGIMQTVKGFFYVSLLLDILKEITGSSLIQKTDSDEEVAMLLDTVQKVFQKMLECIARSFRKQPEEGLRLLYSVQRPLHEFITAVQSRHTDTPVHRGVLSTLIAGPVVEISHQLRKVSDVEELTPPEHLSDLPPFSRCLIGIIIKSSNVVRSFLDELKACVASNDIEGIVCLTAAVHIILVINAGKHKSSKVREVAATVHRKLKTFMEITLEEDSIERFLYESSSRTLGELLNS
B2: HDAC8 (protein, UniProt Q9BY41 1-377)
chain: MEEPEEPADSGQSLVPVYIYSPEYVSMCDSLAKIPKRASMVHSLIEAYALHKQMRIVKPKVASMEEMATFHTDAYLQHLQKVSQEGDDDHPDSIEYGLGYDCPATEGIFDYAAAIGGATITAAQCLIDGMCKVAINWSGGWHHAKKDEASGFCYLNDAVLGILRLRRKFERILYVDLDLHHGDGVEDAFSFTSKVMTVSLHKFSPGFFPGTGDVSDVGLGKGRYYSVNVPIQDGIQDEKYYQICESVLKEVYQAFNPKAVVLQLGADTIAGDPMCSFNMTPVGIGKCLKYILQWQLATLILGGGGYNLANTARCWTYLTGVILGKTLSSEIPDHEFFTAYGPDYVLEITPSCRPDRNEPHRIQQILNYIKGNLKHVV
B3: SLC26A2 (protein, UniProt P50443 1-739)
chain: MSSESKEQHNVSPRDSAEGNDSYPSGIHLELQRESSTDFKQFETNDQCRPYHRILIERQEKSDTNFKEFVIKKLQKNCQCSPAKAKNMILGFLPVLQWLPKYDLKKNILGDVMSGLIVGILLVPQSIAYSLLAGQEPVYGLYTSFFASIIYFLLGTSRHISVGIFGVLCLMIGETVDRELQKAGYDNAHSAPSLGMVSNGSTLLNHTSDRICDKSCYAIMVGSTVTFIAGVYQVAMGFFQVGFVSVYLSDALLSGFVTGASFTILTSQAKYLLGLNLPRTNGVGSLITTWIHVFRNIHKTNLCDLITSLLCLLVLLPTKELNEHFKSKLKAPIPIELVVVVAATLASHFGKLHENYNSSIAGHIPTGFMPPKVPEWNLIPSVAVDAIAISIIGFAITVSLSEMFAKKHGYTVKANQEMYAIGFCNIIPSFFHCFTTSAALAKTLVKESTGCHTQLSGVVTALVLLLVLLVIAPLFYSLQKSVLGVITIVNLRGALRKFRDLPKMWSISRMDTVIWFVTMLSSALLSTEIGLLVGVCFSIFCVILRTQKPKSSLLGLVEESEVFESVSAYKNLQIKPGIKIFRFVAPLYYINKECFKSALYKQTVNPILIKVAWKKAAKRKIKEKVVTLGGIQDEMSVQLSHDPLELHTIVIDCSAIQFLDTAGIHTLKEVRRDYEAIGIQVLLAQCNPTVRDSLTNGEYCKKEEENLLFYSVYEAMAFAEVSKNQKGVCVPNGLSLSSD
B4: JCAD (protein, UniProt Q9P266 1-1359)
chain: MYSVEDLLISHGYKLSRDPPASREDNPKGRQAARTGTRAGQGLQNGHEDGPAALAHRKTSAGKGHVSDSESRRSTPRGHGEPQSTSASRTSEAGFCNQPPSAWSSHPPTGNDQAYRRRGRQEARSQKPREHENLEARGMAQAHSLPVHVREGPWEVGGRSEHVMKKPVWEEELRMSGPAKWQNVSLESWNQPRKLGRQMSDGDGERLFQDLYPFIQGEHVLNSQNKGKSRSLPRVLSPESLSCTEIPIPLNERHSPKMPPYPPTCAPNLDSTRNSEKSGCSAPFPRPKFGRPLKPPSYSSHQQSRGGADSSDSQDSQQMDAYVPRHELCLSDPGLEPPVYVPPPSYRSPPQNIPNPYLEDTVPINVCGGHSQQQSPTEKAGASGQPPSGPPGTGNEYGVSPRLPQGLPAHPRPVTAYDGFVQYIPFDDPRLRHFKLAQPQGFCEDIKLDDKSYNSSPVTAQEPAHGGMQPDGAIWNPQSLIPPSGDERGLVLADSSPRWLWGQPPGDGENSGLPNQRDRCVARGQWPDVRGSQHGHTGRQVSSPYSQGESTCETQTKLKKFQTGTRTKKSSKKKMNETIFCLVSIPVKSESHLPDRDMDNNDLKPSADQKNGSDKSPALQEQSLLSMSSTDLELQALTGSMGGRTEFQKQDLGEPEEDRQTNDLSFIHLTKHRELKHSGSWPGHRYRDQQTQTSFSEEPQSSQLLPGAKLGGPSRAALSPKCSDPAASEAQTHTAFPTGDHKQRPSARNLKGHRSLSPSSNSAFSRTSLSVDQAPTPKAGRSQPCVDVHGLGAHPGPKREVVKGEPTGPCNSKQLFGQFLLKPVSRRPWDLISQLESFNKELQEEEESSSSSSSSSSSSEESEAEPQQENRAHCRQEDVGFRGNSPEMRVEPQPRMWVPESPVCRSGRGESKSESWSEELQPGHPRAWPPSPGRFRVEEGGGAPFCSADGSTSAEKRHLEVSNGMDELAGSPFPVTRMSSRSSDAKPLPASYPAEPREPQESPKITSAFSSVKPSEAVPRKFDSGGERGAGLPLSLSNKNRGLSAPDLRSVGLTPGQEQGASELEGSLGEASTIEIPPGESLQARAARILGIEVAVESLLPGIRRAGQNQPAEPDASACTPESPQEELLSRPAPADVPRVSTDAFYGRRKCGWTKSPLFVGDRDSARRAPQAFEHSDVDGVVTSTDPVPEPEPSPLESKFFEQKDVETKPPFRSTLFHFVERTPSVAGSEKRLRSPSKVIESLQEKLASPPRRADPDRLMRMKEVSSVSRMRVLSFRNADSQEDAEELKATTRGQAGLPGGLVSPGSGDRAQRLGHSLSVSKDSISREEKEHPAAQKEKSMDQDFWCPDSYDPSRVERV

Sequences of proteins named here, by UniProt entry; tags and fusion partners are left off. A change or cut given only in a name is not applied to a line headed by its entry.
UniProt Q460N5, whole entry: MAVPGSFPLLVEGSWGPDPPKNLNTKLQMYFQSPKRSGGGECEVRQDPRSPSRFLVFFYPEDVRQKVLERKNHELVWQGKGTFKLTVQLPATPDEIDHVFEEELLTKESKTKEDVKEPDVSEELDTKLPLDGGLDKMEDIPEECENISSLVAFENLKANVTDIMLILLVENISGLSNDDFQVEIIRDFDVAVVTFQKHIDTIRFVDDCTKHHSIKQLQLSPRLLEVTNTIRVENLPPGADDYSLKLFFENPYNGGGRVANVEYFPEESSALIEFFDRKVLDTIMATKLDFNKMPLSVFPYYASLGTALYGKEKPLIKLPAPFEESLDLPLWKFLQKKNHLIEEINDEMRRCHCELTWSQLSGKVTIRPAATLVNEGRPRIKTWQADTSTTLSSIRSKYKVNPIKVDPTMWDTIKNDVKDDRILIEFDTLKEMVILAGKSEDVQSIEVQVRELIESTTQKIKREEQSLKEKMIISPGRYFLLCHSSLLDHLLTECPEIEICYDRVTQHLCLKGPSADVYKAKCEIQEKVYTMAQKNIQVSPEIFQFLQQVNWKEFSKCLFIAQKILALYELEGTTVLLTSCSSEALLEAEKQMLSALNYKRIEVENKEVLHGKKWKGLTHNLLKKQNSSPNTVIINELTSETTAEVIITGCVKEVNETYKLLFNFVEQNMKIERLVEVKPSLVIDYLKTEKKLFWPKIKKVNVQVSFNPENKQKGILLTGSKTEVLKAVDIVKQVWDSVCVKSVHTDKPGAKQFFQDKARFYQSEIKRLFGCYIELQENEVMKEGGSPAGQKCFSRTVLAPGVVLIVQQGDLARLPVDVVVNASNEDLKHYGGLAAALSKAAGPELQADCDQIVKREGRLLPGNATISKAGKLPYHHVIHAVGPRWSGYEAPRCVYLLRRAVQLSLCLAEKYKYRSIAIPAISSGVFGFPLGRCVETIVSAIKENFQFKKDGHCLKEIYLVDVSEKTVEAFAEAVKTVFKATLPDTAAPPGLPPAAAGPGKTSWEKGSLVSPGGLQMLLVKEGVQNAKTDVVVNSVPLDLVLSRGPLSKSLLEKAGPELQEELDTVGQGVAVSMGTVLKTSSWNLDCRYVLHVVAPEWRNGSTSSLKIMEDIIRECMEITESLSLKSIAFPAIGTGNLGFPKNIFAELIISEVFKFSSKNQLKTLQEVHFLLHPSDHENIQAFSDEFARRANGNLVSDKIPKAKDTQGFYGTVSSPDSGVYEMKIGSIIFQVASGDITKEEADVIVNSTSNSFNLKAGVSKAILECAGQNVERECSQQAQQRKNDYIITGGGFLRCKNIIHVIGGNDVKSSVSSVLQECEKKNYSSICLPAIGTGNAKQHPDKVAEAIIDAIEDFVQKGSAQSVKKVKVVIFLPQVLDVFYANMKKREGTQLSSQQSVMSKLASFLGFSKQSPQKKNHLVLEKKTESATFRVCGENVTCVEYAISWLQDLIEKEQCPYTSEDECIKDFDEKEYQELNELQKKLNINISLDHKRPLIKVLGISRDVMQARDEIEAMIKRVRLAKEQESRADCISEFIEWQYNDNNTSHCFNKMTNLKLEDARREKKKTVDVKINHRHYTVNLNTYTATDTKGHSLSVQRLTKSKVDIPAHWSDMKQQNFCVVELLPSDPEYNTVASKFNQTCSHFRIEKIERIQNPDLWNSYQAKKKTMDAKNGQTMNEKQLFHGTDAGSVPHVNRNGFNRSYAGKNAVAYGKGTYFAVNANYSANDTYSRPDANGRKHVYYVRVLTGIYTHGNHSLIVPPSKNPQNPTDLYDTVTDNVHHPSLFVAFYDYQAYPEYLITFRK

The values below come from publication doi:10.64898/2025.12.23.696151.

These are yes or no findings as the source states them, for the method shown. Binding seen in cells or lysates may run through a third protein. Here binding means that the protein was enriched with, or labelled near, the bait; the list need not be complete.

In this assay the target is PARP14-FLAG-His (UniProt Q460N5). The assay is described as follows: affinity purification with mass spectrometry.
Turning to THBS3 (from UniProt P49746 23-956), the binding entry is given as “binds”.

Consider RCOR3 (from UniProt Q9P2K3 1-495), for which the binding result is “binds”.

With DNMBP (from UniProt Q6XZF7 1-1577), the binding result is “binds”.

In the case of B1, the binding result is “binds”.

Regarding B2, the binding entry was “binds”.

Turning to B3, the binding entry is recorded as “binds”.

Turning to B4, the binding result is reported as “binds”.
